For 4 molecules, binding results are on record in article PMC4859069 (2016).

Results are given in words; binding and its absence hold for the method and conditions named. For some of these results: Binding seen in cells or lysates may run through a third protein. Some binding calls cover weakened binding; strength is not graded here. Tags and fused reporters may be left off the sequences shown.

The target of test [1] is T1, Flag-14-3-3ζ (Drosophila) (UniProt P29310).
T1 sequence: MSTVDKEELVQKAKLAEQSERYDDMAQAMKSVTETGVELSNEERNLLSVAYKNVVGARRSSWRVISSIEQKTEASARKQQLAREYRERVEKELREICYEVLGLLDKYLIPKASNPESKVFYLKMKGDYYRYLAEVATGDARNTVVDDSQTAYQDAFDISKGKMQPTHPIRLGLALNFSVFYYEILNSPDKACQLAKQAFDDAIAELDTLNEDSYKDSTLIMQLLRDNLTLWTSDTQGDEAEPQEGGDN
The test is described as follows: co-IP; S2 cells co-transfected with Flag-tagged 14-3-3 (or Flag-GFP) and V5-Tctp or V5-Rheb; CHAPS-based lysis buffer; anti-Flag on G-sepharose beads, overnight at 4 °C; blot with anti-V5.

A further test addresses T2, GST-14-3-3ζ (Drosophila melanogaster (Fruit fly), UniProt P29310).
T2 chain: T1 sequence
Briefly: pull-down; 20 μg of each MBP- and GST-tagged protein in 500 μl pull-down buffer (20 mM Tris pH 7.5, 150 mM NaCl, 0.5 mM EDTA, 10% glycerol, 0.1% Triton X-100, 1 mM DTT), overnight at 4 °C with Glutathione Excellose resin; blot with anti-MBP; both purified.

B1: V5-Rheb (protein, UniProt Q9VND8 1-182)
chain: MPTKERHIAMMGYRSVGKSSLCIQFVEGQFVDSYDPTIENTFTKIERVKSQDYIVKLIDTAGQDEYSIFPVQYSMDYHGYVLVYSITSQKSFEVVKIIYEKLLDVMGKKYVPVVLVGNKIDLHQERTVSTEEGKKLAESWRAAFLETSAKQNESVGDIFHQLLILIENENGNPQEKSGCLVS
B1: the binding result in test [1] was “binds”.

B2: MBP–Rheb (protein, UniProt Q9VND8 1-182)
chain: B1 chain
For the molecule B2, in the test with GST-14-3-3ζ, the binding entry is “binds”.

B3: V5-Tctp (protein, UniProt Q9VGS2 1-172)
chain: MKIYKDIITGDEMFADTYKMKLVDDVIYEVYGKLITRQGDDIKLEGANASAEEADEGTDITSESGVDVVLNHRLTECFAFGDKKSYTLYLKDYMKKVLAKLEEKSPDQVDIFKTNMNKAMKDILGRFKELQFFTGESMDCDGMVALVEYREINGDSVPVLMFFKHGLEEEKC
Regarding B3, the binding entry in test [1] was “binds”.

B4: MBP-Tctp (protein)
chain: B3 chain
As to B4, the binding result with GST-14-3-3ζ is reported as “binds”.
